{"sequences": {"note": "Protein sequences, listed by entry. Tags and fused reporters are not part of them.", "UniProt P51140": "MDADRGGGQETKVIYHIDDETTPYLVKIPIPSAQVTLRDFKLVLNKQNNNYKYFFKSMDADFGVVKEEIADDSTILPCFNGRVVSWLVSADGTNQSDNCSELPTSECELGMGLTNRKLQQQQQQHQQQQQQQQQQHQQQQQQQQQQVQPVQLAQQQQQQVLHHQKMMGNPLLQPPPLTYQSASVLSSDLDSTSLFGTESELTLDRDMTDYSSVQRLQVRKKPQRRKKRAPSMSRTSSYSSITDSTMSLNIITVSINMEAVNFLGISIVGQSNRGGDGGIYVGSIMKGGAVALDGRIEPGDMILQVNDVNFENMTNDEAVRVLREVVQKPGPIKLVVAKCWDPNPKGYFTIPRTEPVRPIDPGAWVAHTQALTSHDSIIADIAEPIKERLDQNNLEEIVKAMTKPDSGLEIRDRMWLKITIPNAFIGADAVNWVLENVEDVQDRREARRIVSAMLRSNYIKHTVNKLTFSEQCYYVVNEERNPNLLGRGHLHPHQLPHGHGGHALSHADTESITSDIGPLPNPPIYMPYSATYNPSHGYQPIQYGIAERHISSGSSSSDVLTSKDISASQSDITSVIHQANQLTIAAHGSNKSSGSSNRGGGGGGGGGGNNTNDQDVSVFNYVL"}, "source": "paper PMC10381084", "target": "T1, pY-peptide (Vang 367–381, phosphorylated at Y374) (Drosophila)", "T1 sequence (peptide, phosphotyrosine at Y374 ([pY]); C-terminal amide)": "ISNSFKYYEVDGVSN", "assay": "pull-down; competitive binding: Dsh-GFP mixed in solution with increasing levels of Pk on beads coupled with the pY or the Y peptide; retention of Dsh-GFP on the beads by Western blot; only the target purified", "note": "No constants are given. Whether binding was seen depends on the method and setting. Binding seen in cells or lysates may run through a third protein. Some entries that bind do so weakly or less than the wild type.", "data": [{"substance": "Dsh-GFP (Drosophila Dishevelled) (from UniProt P51140 1-623)", "values": [{"measurement": "binding", "result": "binds"}]}]}
